From US20050255537A1, “Method for monitoring treatment with a parathyroid hormone” (priority 1999, published 2005)

Assay: Example 5 study GHAJ: height
Assay type: in vivo, human

With `CC[C@H](C)[C@H](NC(=O)[C@H](CCC(=O)O)NC(=O)[C@H](CO)NC(=O)[C@@H](NC(=O)[C@@H](N)CO)C(C)C)C(=O)N[C@@H](CCC(N)=O)C(=O)N[C@@H](CC(C)C)C(=O)N[C@@H](CCSC)C(=O)N[C@@H](Cc1cnc[nH]1)C(=O)N[C@@H](CC(N)=O)C(=O)N[C@@H](CC(C)C)C(=O)NCC(=O)N[C@@H](CCCCN)C(=O)N[C@@H](Cc1cnc[nH]1)C(=O)N[C@@H](CC(C)C)C(=O)N[C@@H](CC(N)=O)C(=O)N[C@@H](CO)C(=O)N[C@@H](CCSC)C(=O)N[C@@H](CCC(=O)O)C(=O)N[C@@H](CCCN=C(N)N)C(=O)N[C@H](C(=O)N[C@@H](CCC(=O)O)C(=O)N[C@@H](Cc1c[nH]c2ccccc12)C(=O)N[C@@H](CC(C)C)C(=O)N[C@@H](CCCN=C(N)N)C(=O)N[C@@H](CCCCN)C(=O)N[C@@H](CCCCN)C(=O)N[C@@H](CC(C)C)C(=O)N[C@@H](CCC(N)=O)C(=O)N[C@@H](CC(=O)O)C(=O)N[C@H](C(=O)N[C@@H](Cc1cnc[nH]1)C(=O)N[C@@H](CC(N)=O)C(=O)N[C@@H](Cc1ccccc1)C(=O)O)C(C)C)C(C)C` [LY333334] the “mean height decrease at endpoint” value (20-μg group) was 2.20 mm and the “mean height decrease at endpoint” value (40-μg group) was 3.25 mm.
